Values joined by “and” are separate entries in the source; they are usually repeats but may differ in a detail not shown here. Equal values may be shown once. At least one read-out could not be matched to a standard name with certainty.
Key:
Assay in all cases: General post-emergent herbicidal activity, foliar application
Type in all cases: in vivo
[1] = system: Euphorbia heterophylla L. (poinsettia, wild); settings: scored after 14 days
Experimental: (§1) A weighed amount, determined by the highest rate to be tested, of each test compound was placed in a 25 mL glass vial and was dissolved in 4 mL of a 97:3 v/v (volume/volume) mixture of acetone and dimethyl sulfoxide to obtain concentrated stock solutions which will be referred to as General Purpose Solvent. […] The concentrated stock solutions obtained were diluted with 20 mL of an aqueous mixture containing water, General Purpose Solvent, isopropyl alcohol, Atplus 411F crop oil concentrate, and Triton X-155 surfactant in a 46:42:12:1.0:0.02 v/v ratio to obtain spray solutions containing the highest application rates. Additional application rates were obtained by serial dilution of 12 mL of the high rate solution into a solution containing 2 mL of 97:3 v/v (volume/volume) mixture of acetone and dimethyl sulfoxide and 10 mL of an aqueous mixture containing water, General Purpose Solvent, isopropyl alcohol, Atplus 411F crop oil concentrate, and Triton X-155 surfactant in a 46:42:12:1.0:0.02 v/v ratio to obtain 1/2×, 1/4×, 1/8× and 1/16× rates of the high rate. […] Control plants were sprayed in the same manner with the solvent blank.
(§2) The treated plants and control plants were placed in a greenhouse as described above and watered by sub-irrigation to prevent wash-off of the test compounds. After 14 days, the condition of the test plants as compared with that of the untreated plants was determined visually and scored on a scale of 0 to 100 percent where 0 corresponds to no injury and 100 corresponds to complete kill.
(§3) By applying the well-accepted probit analysis as described by J. Berkson in […], 48, 565 (1953) and by D. Finney in “Probit Analysis” Cambridge University Press (1952), the dose response data gathered as expressed above can be used to calculate GR20, GR50 and GR80 values, which are defined as growth reduction factors that correspond to the effective dose of herbicide required to kill or control 20 percent, 50 percent or 80 percent, respectively, of a target plant. Data not expressed in Table A may have been used to calculate some of the GR80 values in Table B. In some cases, the GR80 values may be extrapolations calculated based on the slope of the dose response curve for individual compounds listed in Table B.

[2] = system: Chenopodium album L. (lambsquarters, common); settings: scored after 14 days
Experimental: as §1, §2, §3

[3] = system: Helianthus annuus L. (sunflower, common); settings: 140 g ai/ha, scored after 14 days
Experimental: as §1, §2, §3

[4] = system: Viola tricolor L. (pansy); settings: 140 g ai/ha, scored after 14 days
Experimental: as §1, §2, §3

[5] = system: Amaranthus retroflexus L. (pigweed, redroot); settings: scored after 14 days
Experimental: as §1, §2, §3

Oryza sativa L. (rice) = settings: 70 g ai/ha, scored after 14 days
Experimental: (§4) A weighed amount, determined by the highest rate to be tested, of each test compound was placed in a 25 mL glass vial and was dissolved in 4 mL of a 97:3 v/v (volume/volume) mixture of acetone and dimethyl sulfoxide to obtain concentrated stock solutions which will be referred to as General Purpose Solvent. […] The concentrated stock solutions obtained were diluted with 20 mL of an aqueous mixture containing water, General Purpose Solvent, isopropyl alcohol, Atplus 411F crop oil concentrate, and Triton X-155 surfactant in a 46:42:12:1.0:0.02 v/v ratio to obtain spray solutions containing the highest application rates. […]
as §2

Zea mays L. (corn) = settings: 70 g ai/ha, scored after 14 days
Experimental: as §4, §2

`COC(=O)c1nc(C(F)(F)F)cc(N)c1Cl` [Prior Art 1, reference compound] was tested, and the “% Visual Growth Reduction EPHHL” value ([1]; 35 g ai/ha) was 70%, the “% Visual Growth Reduction EPHHL” value ([1]; 70 g ai/ha) was 80% and the “% Visual Growth Reduction EPHHL” value ([1]; 140 g ai/ha) was 100%. For the same compound, the “% Visual Growth Reduction CHEAL” value ([2]; 35 g ai/ha) was 90%, the “% Visual Growth Reduction CHEAL” value ([2]; 70 g ai/ha) was 90% and the “% Visual Growth Reduction CHEAL” value ([2]; 140 g ai/ha) was 95%. For the same compound, the “% Visual Growth Reduction HELAN” value [3] was 85% and 50% and 90%, the “% Visual Growth Reduction VIOTR” value [4] was 75% and the “% Visual Growth Reduction AMARE” value ([5]; 35 g ai/ha) was 75% and 100%. For the same compound, the “% Visual Growth Reduction AMARE” value ([5]; 70 g ai/ha) was 90% and 100%, the “% Visual Growth Reduction ORYSA” value (Oryza sativa L. (rice)) was 0% and 10% and the “% Visual Growth Reduction ZEAMX” value (Zea mays L. (corn)) was 0% and 10%.

— US9603364B2 (Dow AgroSciences LLC, priority 2013, dated 2017)
